From PubChem BioAssay AID1347423 (Functional Genomics Laboratory (NCATS/FGL), 2020)
In all, about 52,000 sequences went through this assay and about 210 (0.4%) were called active.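 Rule for the calls: active = gene whose silencing raises cell survival under the drug, median off-target-corrected z-score across its silencing RNAs 2 or more; inactive = the rest.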 The list shows a part of the results.

test: Resistance to Poly (ADP-Ribose) Polymerase inhibitor: Gene Identification via Genome-wide siRNA Screen; settings: mouse BRCA2 R2336H ES cells, olaparib, CellTiter-Glo viability; active compounds read high
Text: The role of Poly (ADP-Ribose) Polymerase (PARP) proteins in DNA repair has been elegantly utilized for the synthetic lethality-based treatment of BRCA-deficient tumors by PARP inhibitors. PARP inhibitors are now being used for treatment of BRCA-deficient breast and ovarian cancers. […] While several mechanisms of drug resistance have been identified, majority of these tumors develop drug resistance due to unknown causes. To identified novel regulators of chemo-resistance in BRCA2-mutated cells, we performed a genome wide siRNA library screen. We have found ES cells expressing a hypomorphic allele of BRCA2 to be hypersensitive to PAPP inhibitors (such as olaparib). We used ES cells expressing a mutant allele of BRCA2 that has a single amino acid substitution at position 2336 (arginine to histidine, R2336H). The screen was conducted using an Ambion (Thermo) Silencer Mouse Genome siRNA collection. The library targets 17,575 mouse genes with 3 siRNAs per gene. TET2 (E130014J05Rik) was identified as a top candidate.
Transfections were performed in 384 well plates (Corning 3707). Plates were coated with 0.1% gelatin in H2O overnight at ambient temperature. Gelatin solution was aspirated (BioTek EL406) and siRNAs were printed using a Bravo VPrep liquid handler integrated within a BioCel automation platform (Agilent). Cell viability was measured using CellTiter Glo (Promega). For transfections, […] of serum free media containing Lipofectamine RNAiMax […] was added to wells containing siRNA (0.8pmol). Lipid and siRNA were allowed to complex for 45 min at ambient temperature before addition of 1000 cells in DMEM, 30% FBS to yield final transfection mixtures containing 20 nM siRNA in DMEM, 15% FBS. PARPi (olaparib, AZD2281) was added 48 h post-transfection (500 nM) and viability (CellTiter Glo, Promega) was assayed 72 h later on a PerkinElmer Envision 2104 Multilabel plate reader. Ambion Silencer Select Negative Control #2 was incorporated on all screening plates (16 wells) and the median negative control value on each plate was used for normalization. An siRNA targeting Trp53 was used as a positive control. This control yielded a median protective effect of ~1.9 fold versus negative control throughout the screen. The median absolute deviation (MAD) based z-score was calculated for each siRNA. Genes were then ranked by taking the median value for all siRNAs tested against a given gene. Scores were also adjusted for seed-based off-target effects to help deprioritize likely false positives.

Row | Sequence | z-score
1 | GGAGCUUAGUCUAAUUGAATT against Ms4a6c | inactive: 0.226
2 | GGUACACCACAAUCCUCACTT against Olfr676 | inactive: -0.646
3 | GGCAAAUAAAUGAUCCAAATT against Echs1 | inactive: 0.5
4 | GGAGAUGAUUUCCUACUUCTT against Rasgrp2 | inactive: 0.191
5 | CGCAUACUGAUGAUAACUATT against Zfp75 | inactive: -0.568
6 | GGUCAAAUGCACCCGAUUATT against Hoxc10 | inactive: -0.393
7 | GCCACCUUCCAAGCUCAAATT against Hist3h2ba | inactive: -0.9
8 | GGUGUGUAUGAUGCUGGCATT against Olfr1508 | inactive: -0.955
9 | GGAAACCUCCGAAAGGCAUTT against D12Wsu95e | inactive: 0.434
10 | GGAGAAGAAUUCAUUUCUCTT against Myst2 | inactive: 0.764
11 | GAAUCCUACGGUUGAAUAUTT against Hrmt1l3 | inactive: 0.58
12 | GGCAUUGAACAAGAAAGAATT against Mef2c | inactive: -0.0416
13 | CCCUAGCUAUAAAACUCUCTT against Rabif | inactive: 0.363
14 | GAAACUACACCUCAGAGUGTT against AI481500 | inactive: -1.7
15 | GGUCGAACAGAAGAUUGCUTT against Got1 | inactive: -0.989
16 | GGAUUCUGAGCGUAGCUGATT against BC038925 | inactive: -0.295
17 | GCUGAACUAUAACUUGAAATT against Stat1 | inactive: 0.735
18 | GAGGGAAAUACAUUCUAACTT against NMS | inactive: 0.736
19 | GGCAAACUAUGCCUUCAAGTT against Cib2 | inactive: 0.426
20 | UCCUGUCUGGUUCCUUUUUTT against 3300001H21Rik | inactive: 1.72
21 | CGCAAUACCAGCAAAAGACTT against Tmem7 | inactive: 0.219
22 | GGAAGACAGCACCAUGAACTT against Il17f | inactive: 1.59
23 | CCCUAAUAAAUUCCAAAUCTT against H2-Ke6 | inactive: 1.19
24 | GGGUCCACAUCUUGAGCUUTT against Fxyd7 | inactive: -1.3
25 | CCUUAAGAUCAUUUACCCATT against Mixl1 | inactive: 0.246
26 | GGAGAGACCUCUGAGAUUGTT against Ephb6 | inactive: -1.49

Row | Sequence | z-score
27 | GCCCUAGAACUUUUGAAUUTT against Dhx15 | inactive: -1.01
28 | GACUGCUACAAGGUGAAGATT against Mrpl36 | inactive: 0.682
29 | GCUAGGCAGUGAAGUUGAUTT against Atf4 | inactive: -2.35
30 | CGAGGUACUCCAGAAUAGATT against Gdf8 | inactive: -0.886
31 | GGCUUUGAUCAGCUCAGAATT against C530050O22Rik | inactive: -1.15
32 | GGAUCUGAAGGUGAUGUCATT against H2-Q10 | inactive: -3.34
33 | GGGCAUCCAGGAUUAUGUGTT against Vamp5 | inactive: 0.216
34 | AGAGAUGGAAAGUGGUUUCTT against Olfr1226 | inactive: 1.65
35 | GGGACUUGGAUCGAAUGGATT against Apeh | inactive: 1.74
36 | GCUUCUUACAGUUUGCCCATT against V1rd6 | inactive: 0.146
37 | GCUCUUUCUAGCCCUUCCCTT against Spry3 | inactive: -0.575
38 | UCACUUGUACCAAAAAUGATT against Adcy1 | inactive: -0.552
39 | GCGCAUGCAACAGAAGUAUTT against D130016K21Rik | inactive: 0.00483
40 | GGAAAAGUUGCAUUUGGUCTT against Wdr17 | inactive: -0.539
41 | CCAGAAGCCAACUAUCUUUTT against Ppp1cb | inactive: 1.93
42 | GGAUGCUCUCUUAAAUGGATT against AI595338 | inactive: -0.0806
43 | GAUCUUAUAUGUUGGUGGUTT against V1rc2 | inactive: -0.413
44 | GGCUUGUGGCCUUAUCUGATT against Comtd1 | inactive: 0.643
45 | CGGUCUUCAAGCUCCCUCATT against Olfr627 | inactive: -0.737
46 | GCUUGACCCUACACUACAGTT against Olfr1121 | inactive: 1.25
47 | GAACAGUCCUUUUAUGGAUTT against V1rc14 | inactive: 0.108
48 | CGAACUCAAGAGUGUGGAGTT against Becn1 | inactive: -0.83
49 | GGAAAGAGCACCAAUUUUUTT against Ccr5 | inactive: 0.926
50 | GGAAGGUGGUGUCAAAAUGTT against 3-Sep | inactive: -0.692
51 | GGAUAAUAGCAGCUUAUACTT against Ccl11 | inactive: 0.759
52 | GGGCCAUCACACACCCUAATT against Ctrl | inactive: -1.43

An excerpt of these results, in markdown:

| Row | Sequence | z-score |
| --- | --- | --- |
| 33 | GGGCAUCCAGGAUUAUGUGTT against Vamp5 | inactive: 0.216 |
| 34 | AGAGAUGGAAAGUGGUUUCTT against Olfr1226 | inactive: 1.65 |
| 35 | GGGACUUGGAUCGAAUGGATT against Apeh | inactive: 1.74 |

Additional results follow.

Row | Sequence | z-score
53 | GGUGGAGAAGCUCAUUGCUTT against Zap70 | inactive: -0.0251
54 | GGAUUUGAGUUGAAGCGUGTT against Zfp31 | inactive: -0.623
55 | GGGUCAGAUGCAGACUGUUTT against 9030611O19Rik | inactive: 0.403
56 | GCAGAUUGAAUCAUCCAUGTT against Nipa | inactive: -0.415
57 | GGCAACAGGACUGCCAAAUTT against Arhgap12 | inactive: -2.12
58 | GGAGCAUUGCUUCUCUGACTT against 6030445D17Rik | inactive: -1.34
59 | GGAGUUAAUCAGUCAAAUGTT against 6330415M09Rik | inactive: 1.86
60 | GCAUUACCAAGGCGAUUUUTT against Ren2 | inactive: 0.285
61 | GGUCCUGUGGAUAACAAUATT against Inha | inactive: -1.15
62 | GCGAUUAACGGAUCGUACCTT against 1110019O13Rik | inactive: -0.0989
63 | GGACAGCGAUAUCUCAAUATT against 1700001P01Rik | inactive: 0.463
64 | GCAUCUCUCUACCAUUGACTT against 1200004M23Rik | inactive: -1.98
65 | CGUACUAUGGUGCUUUCAUTT against Map4k4 | inactive: -0.787
66 | GCAACAGUUAACCAUUAGCTT against Ms4a6b | inactive: -0.445
67 | CCAGAAUGUAAAACAACCGTT against Zfp365 | inactive: 1.5
68 | GGCCUACUCAAUCAAAGACTT against Tigd5 | inactive: -0.465
69 | CUGAUUCUGGGAAACAGUATT against Tas2r123 | inactive: 0.0544
70 | GGUCUUCAGCCCAAGAAAUTT against Dsg2 | inactive: 1.21
71 | CCUAGGAUAGAGAUUGUUGTT against 4733401H18Rik | inactive: -0.815
72 | GGGUAAGACAUACAACAUATT against Attp | inactive: -0.772
73 | GGUUUUUACAGAAGUACAUTT against Atm | inactive: -2.49
74 | GGAUCCUAAAAUGAAAAAGTT against 1700006C19Rik | inactive: -0.482
75 | GGACAGACUGAUUAAGAAATT against 1700019B16Rik | inactive: 2.44
76 | GGUUAUAUCCAUGUGACACTT against Nkg7 | inactive: 0.359
77 | CCCAUUCUCAGGGUACUAATT against Apba2bp | inactive: 0.0437
78 | CGAAAACAUUAACCUUGGUTT against Mylip | inactive: 0.0259

Reprinted: nos. 17–18
Row | Sequence | z-score
17 | GCUGAACUAUAACUUGAAATT against Stat1 | inactive: 0.735
18 | GAGGGAAAUACAUUCUAACTT against NMS | inactive: 0.736

(next part)

Row | Sequence | z-score
79 | GUCUUUACCGACUGGUUAGTT against Ldoc1 | inactive: 0.0531
80 | CCCUUAGGAAUUGAAUAUGTT against 4930413O22Rik | inactive: 0.386
81 | GGUUUCAUGUGACUUUUAUTT against Tgn | inactive: 1.51
82 | GGCCAUAAAGGAAAGAGCUTT against Actr1a | inactive: -0.529
83 | CCCUUCUUCGGGUUUUAACTT against Kcna3 | inactive: -0.000841
84 | GGAAAAACUUCACCUUUGGTT against B3galt1 | inactive: -1.12
85 | GGAUUGAGACCUCACAGUGTT against Gorasp2 | inactive: -0.297
86 | CCUAGAGGAAGAUUUCGAUTT against Cacna1h | inactive: -0.0502
87 | GCUGUCAGCAAAUAAAUGCTT against 1110020P15Rik | inactive: -0.461
88 | CCUAGAAGUCAUUAAGACGTT against 5730438N18Rik | inactive: 0.575
89 | CCUCUGGUUGUAAAAACAUTT against Rpp38 | inactive: 1.15
90 | GCUGUAGUUCCCUGGCCUATT against 2310057N15Rik | inactive: -1.05
91 | GGAUUUUUGCACUCAGUAATT against Olfr1256 | inactive: 0.617
92 | CCUGAAUUGGUACCUCACATT against AI746432 | inactive: -3.34
93 | CCUUACCAUCGUCUUCAAGTT against Cmklr1 | inactive: 0.503
94 | CGAUGACAUCAGGAUUGUUTT against Gpr128 | active: 1.23
95 | GCUGUCGACUUUAAAAGGUTT against Pcdhga7 | inactive: 0.132
96 | GGAUACGAUUGAACGGCUGTT against Rac3 | inactive: 0.0993
97 | GUUGGUUGUAGGUACUUAUTT against Olfr487 | inactive: 0.198
98 | CCUGUCAAAGUUGUAAAAGTT against Zar1 | inactive: -0.837
99 | GGUCAAGUGUAAGAUGUUUTT against 1700001E16Rik | inactive: -0.492
100 | GCUGUGUCACUACUUCGAUTT against Rpp40 | inactive: -1.3
101 | GGUGUCUGAUUCUAACAUATT against Catsper4 | inactive: 0.662
102 | CGGUUCUGGGAAUUCUUUGTT against Olfr624 | inactive: -0.000744
103 | GGCCGAUAUGGUGUUUAGATT against Tomm40l | inactive: -0.11
104 | GCAUCACUGCCACAGUGCATT against Olfr159 | inactive: 0.437
